Data published in the supplement of paper PMC10849652.
Some of the results follow.

Protein sequences, listed by entry. Tags and fused reporters are not part of them. Lines headed by an entry give the natural chain unless they say otherwise; changes in a name come on top.
UniProt Q17RY0: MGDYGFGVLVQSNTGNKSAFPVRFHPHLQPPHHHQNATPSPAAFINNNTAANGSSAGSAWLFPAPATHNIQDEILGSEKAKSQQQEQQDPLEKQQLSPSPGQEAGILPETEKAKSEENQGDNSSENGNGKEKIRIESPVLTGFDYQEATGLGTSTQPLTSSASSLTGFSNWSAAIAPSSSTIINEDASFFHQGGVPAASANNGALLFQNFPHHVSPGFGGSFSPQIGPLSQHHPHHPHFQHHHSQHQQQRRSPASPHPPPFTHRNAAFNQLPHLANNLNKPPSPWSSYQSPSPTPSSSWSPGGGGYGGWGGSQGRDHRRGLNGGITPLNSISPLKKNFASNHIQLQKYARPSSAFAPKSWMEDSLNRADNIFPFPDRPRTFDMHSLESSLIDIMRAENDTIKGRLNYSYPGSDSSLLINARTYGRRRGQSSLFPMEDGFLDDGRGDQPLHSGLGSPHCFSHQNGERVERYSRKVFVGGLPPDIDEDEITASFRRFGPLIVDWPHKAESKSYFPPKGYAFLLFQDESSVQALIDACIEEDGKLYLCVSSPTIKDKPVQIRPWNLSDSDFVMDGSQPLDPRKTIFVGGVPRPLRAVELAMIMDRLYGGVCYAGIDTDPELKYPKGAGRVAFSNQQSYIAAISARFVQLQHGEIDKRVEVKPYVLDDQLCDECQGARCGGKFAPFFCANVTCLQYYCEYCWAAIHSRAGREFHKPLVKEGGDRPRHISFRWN
UniProt Q9Y6G5, whole entry, looked up: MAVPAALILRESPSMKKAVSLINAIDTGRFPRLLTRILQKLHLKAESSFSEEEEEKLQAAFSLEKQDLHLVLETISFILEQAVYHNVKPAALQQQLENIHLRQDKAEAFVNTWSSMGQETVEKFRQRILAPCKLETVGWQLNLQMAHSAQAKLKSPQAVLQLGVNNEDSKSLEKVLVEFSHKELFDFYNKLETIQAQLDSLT
UniProt Q9ULV4, whole entry, looked up: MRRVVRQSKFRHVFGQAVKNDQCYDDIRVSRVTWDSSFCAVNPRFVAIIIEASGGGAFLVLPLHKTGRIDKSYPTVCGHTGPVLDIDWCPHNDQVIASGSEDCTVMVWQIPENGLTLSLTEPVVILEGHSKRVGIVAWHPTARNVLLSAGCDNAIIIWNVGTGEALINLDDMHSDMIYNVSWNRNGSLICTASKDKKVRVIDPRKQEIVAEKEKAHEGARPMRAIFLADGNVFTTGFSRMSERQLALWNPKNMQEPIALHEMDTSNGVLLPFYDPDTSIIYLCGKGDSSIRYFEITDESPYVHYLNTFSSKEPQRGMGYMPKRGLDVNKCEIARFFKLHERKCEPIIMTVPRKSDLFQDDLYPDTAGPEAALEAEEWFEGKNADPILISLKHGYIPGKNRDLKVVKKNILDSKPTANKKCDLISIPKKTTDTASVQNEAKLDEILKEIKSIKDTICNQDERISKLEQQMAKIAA
UniProt P09543: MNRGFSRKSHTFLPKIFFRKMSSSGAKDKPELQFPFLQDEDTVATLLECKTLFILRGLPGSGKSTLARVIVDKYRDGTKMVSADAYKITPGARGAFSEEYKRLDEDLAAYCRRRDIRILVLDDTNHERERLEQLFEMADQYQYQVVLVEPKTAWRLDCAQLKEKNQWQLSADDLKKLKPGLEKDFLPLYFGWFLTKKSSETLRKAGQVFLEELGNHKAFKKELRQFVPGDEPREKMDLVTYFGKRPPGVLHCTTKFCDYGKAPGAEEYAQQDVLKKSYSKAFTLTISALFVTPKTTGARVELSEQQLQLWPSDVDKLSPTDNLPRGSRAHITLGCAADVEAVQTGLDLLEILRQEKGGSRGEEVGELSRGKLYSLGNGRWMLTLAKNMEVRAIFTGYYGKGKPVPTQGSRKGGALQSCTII
UniProt P21964: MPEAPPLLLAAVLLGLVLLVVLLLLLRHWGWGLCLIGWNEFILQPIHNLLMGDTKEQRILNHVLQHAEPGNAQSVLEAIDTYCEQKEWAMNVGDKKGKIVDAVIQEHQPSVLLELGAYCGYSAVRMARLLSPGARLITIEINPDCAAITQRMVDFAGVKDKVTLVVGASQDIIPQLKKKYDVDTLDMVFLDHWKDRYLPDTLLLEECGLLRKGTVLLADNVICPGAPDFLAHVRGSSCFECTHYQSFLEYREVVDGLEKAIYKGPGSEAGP
UniProt Q8N129: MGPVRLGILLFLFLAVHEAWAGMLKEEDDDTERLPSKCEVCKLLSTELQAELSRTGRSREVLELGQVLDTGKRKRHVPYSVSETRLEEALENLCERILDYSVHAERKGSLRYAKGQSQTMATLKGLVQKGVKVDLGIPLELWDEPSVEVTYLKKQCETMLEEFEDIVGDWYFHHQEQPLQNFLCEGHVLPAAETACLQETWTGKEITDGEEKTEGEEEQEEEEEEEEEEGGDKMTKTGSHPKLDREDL

What was measured:
Experiment in all cases: log2 fold change, soluble protein after heating vs DMSO (PISA); higher = thermal stabilisation; K562 lysate, 10 uM; active = over 0.2 and 3.5 SD of the protein, either way, in both replicates (recomputed)
alvocidib = compound: CN1CC[C@H](c2c(O)cc(O)c3c(=O)cc(-c4ccccc4Cl)oc23)[C@H](O)C1 [alvocidib]
How it was run: (§1)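 Dounce homogenisation of K562 pellets in PBS pH 7.4 with 1 mM MgCl2 produced a crude extract, used at 1 mg/mL protein. Exposure to 10 μM compound lasted 30 min, and aliquots were then heated for 3 min across 48°C-58°C, pooled and brought to 0.5% NP-40 at 4°C. The supernatant after 21,000xg for 90 min was quantified by TMTpro 16plex LC-MS/MS with channel sums equalised. Duplicate values are given as log-two fold change in thermal stability relative to solvent controls.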

Tubastatin A = compound: CN1CCc2c(c3ccccc3n2Cc2ccc(C(=O)NO)cc2)C1 [Tubastatin A]
How it was run: as §1

[1] = compound: CNC(=O)C1=CC=CC=C1NC2=NC(=NC=C2Cl)NC3=C(C=C(C=C3)N4CCOCC4)OC
How it was run: as §1

defactinib = compound: CNC(=O)c1ccc(Nc2ncc(C(F)(F)F)c(NCc3nccnc3N(C)S(C)(=O)=O)n2)cc1 [defactinib]
How it was run: as §1

[2] = compound: CNc1nc(-c2ccc3c(N)n[nH]c3c2)cc(N2C[C@@H](C(=O)NC3CCCCC3)CC[C@H]2C)n1
How it was run: as §1

encorafenib = compound: COC(=O)N[C@@H](C)CNc1nccc(-c2cn(C(C)C)nc2-c2cc(Cl)cc(NS(C)(=O)=O)c2F)n1 [encorafenib]
How it was run: as §1

[3] = compound: COC(=O)[C@H](CCSC)NC(=O)C1=C(C=C(C=C1)NC[C@H](CS)N)C2=CC=CC=C2
How it was run: as §1

alisertib = compound: COc1cc(Nc2ncc3c(n2)-c2ccc(Cl)cc2C(c2c(F)cccc2OC)=NC3)ccc1C(=O)O [alisertib]
How it was run: as §1

[4] = compound: COc1cc2nc(-c3cc(F)ccc3O)nc(N[C@@H]3CNC[C@H]3C(C)(C)O)c2cc1OC
How it was run: as §1

gefitinib = compound: COc1cc2ncnc(Nc3ccc(F)c(Cl)c3)c2cc1OCCCN1CCOCC1 [gefitinib]
How it was run: as §1

lapatinib = compound: CS(=O)(=O)CCNCc1ccc(-c2ccc3ncnc(Nc4ccc(OCc5cccc(F)c5)c(Cl)c4)c3c2)o1 [lapatinib]
How it was run: as §1

pictilisib = compound: CS(=O)(=O)N1CCN(Cc2cc3nc(-c4cccc5[nH]ncc45)nc(N4CCOCC4)c3s2)CC1 [pictilisib]
How it was run: as §1

[5] = compound: C[C@H](C1=CC=C(C=C1)C(=O)NC2=C3C=CNC3=NC=C2)N
How it was run: as §1

duvelisib = compound: C[C@H](Nc1ncnc2nc[nH]c12)c1cc2cccc(Cl)c2c(=O)n1-c1ccccc1 [duvelisib]
How it was run: as §1

gandotinib = compound: Cc1cc(Nc2cc(CN3CCOCC3)c3nc(C)c(Cc4ccc(Cl)cc4F)n3n2)n[nH]1 [gandotinib]
How it was run: as §1

tozasertib = compound: Cc1cc(Nc2cc(N3CCN(C)CC3)nc(Sc3ccc(NC(=O)C4CC4)cc3)n2)n[nH]1 [tozasertib]
How it was run: as §1

bafetinib = compound: Cc1ccc(NC(=O)c2ccc(CN3CC[C@H](N(C)C)C3)c(C(F)(F)F)c2)cc1Nc1nccc(-c2cncnc2)n1 [bafetinib]
How it was run: as §1

[6] = compound: Cc1cccc(CC(=O)N2CCc3c2ccc(-c2cn(C)c4ncnc(N)c24)c3F)n1
How it was run: as §1

crizotinib = compound: C[C@@H](Oc1cc(-c2cnn(C3CCNCC3)c2)cnc1N)c1c(Cl)ccc(F)c1Cl [crizotinib]
How it was run: as §1

doramapimod = compound: Cc1ccc(-n2nc(C(C)(C)C)cc2NC(=O)Nc2ccc(OCCN3CCOCC3)c3ccccc23)cc1 [doramapimod]
How it was run: as §1

Measured: log2 fold change

CPEB4 (UniProt Q17RY0)
inactive: alvocidib -0.036 | Tubastatin A -0.33 | [1] -0.242 | defactinib 0.142 | [2] 0.096 | encorafenib 0.092 | [3] -0.063 | alisertib -0.057 | [4] -0.045 | gefitinib -0.03 | lapatinib -0.059 | pictilisib -0.056 | [5] -0.117 | duvelisib -0.132 | gandotinib 0.147 | tozasertib 0.037 | bafetinib 0.046 | [6] -0.148

COMMD10 (UniProt Q9Y6G5)
inactive: alvocidib 0.022 | Tubastatin A 0.065 | [1] -0.003 | defactinib 0.054 | [2] -0.023 | encorafenib 0.03 | [3] -0.107 | alisertib -0.007 | [4] -0.021 | gefitinib 0.062 | lapatinib 0.008 | pictilisib -0.03 | crizotinib 0.053 | [5] 0.031 | duvelisib 0.013 | gandotinib -0.073 | tozasertib 0.003 | doramapimod 0.043 | bafetinib 0.008 | [6] -0.06

CORO1C isoform 3 (UniProt Q9ULV4)
inactive: alvocidib -0.015 | Tubastatin A 0.056 | [1] -0.013 | defactinib 0.011 | [2] 0 | encorafenib -0.005 | [3] -0.02 | alisertib -0.02 | [4] -0.008 | gefitinib 0.019 | lapatinib -0.003 | pictilisib 0.004 | crizotinib -0.007 | [5] 0.02 | duvelisib 0.01 | gandotinib 0.005 | tozasertib 0.01 | doramapimod 0.012 | bafetinib 0.036 | [6] -0.005

CNP (UniProt P09543)
inactive: alvocidib -0.005 | Tubastatin A -0.06 | [1] 0.011 | defactinib 0.028 | [2] -0.03 | encorafenib 0.02 | [3] -0.003 | alisertib 0.029 | [4] 0 | gefitinib -0.025 | lapatinib 0.014 | pictilisib 0.015 | crizotinib -0.023 | [5] 0.002 | duvelisib -0.002 | gandotinib -0.047 | tozasertib 0.012 | doramapimod 0.039 | bafetinib -0.026 | [6] 0.022

COMT (UniProt P21964)
inactive: alvocidib 0.012 | Tubastatin A -0.162 | [1] -0.016 | defactinib 0.016 | [2] -0.013 | encorafenib 0.028 | [3] 0.059 | alisertib 0.022 | [4] 0.025 | gefitinib 0.013 | lapatinib -0.006 | pictilisib -0.007 | crizotinib 0.019 | [5] -0.052 | duvelisib -0.015 | gandotinib -0.008 | tozasertib -0.008 | doramapimod 0.038 | bafetinib 0.012 | [6] 0.01

CNPY4 (UniProt Q8N129)
inactive: alvocidib -0.1 | Tubastatin A 0.067 | [1] -0.096 | defactinib -0.045 | [2] -0.043 | encorafenib -0.075 | [3] 0.072 | alisertib 0.039 | [4] 0.003 | gefitinib -0.092 | lapatinib 0.035 | pictilisib 0.021 | crizotinib -0.15 | [5] -0.151 | duvelisib -0.119 | gandotinib 0.085 | tozasertib 0.022 | doramapimod -0.045 | bafetinib 0.03 | [6] 0.159
